Laboratory results as given in patent US20210338708A1, “METHOD FOR TREATMENT OF CORONAVIRUS INFECTION” (Renibus Therapeutics, Inc., priority 2020, published 2021).

System: SARS-CoV-2
Assay: microbe, parasite or virus in culture
Format: cell-based, SARS-CoV-2 (2019-nCoV/USA-WA1/2020 strain)
Conditions: Severe acute respiratory syndrome coronavirus 2, Vero C1008; Condition 2, drug treatment after virus exposure; Vero E6; non-linear regression; read-out: EC50, SARS-CoV-2 replication

CCC(CC)COC(=O)[C@H](C)N[P@](=O)(OC[C@H]1O[C@@](C#N)(c2ccc3c(N)ncnn23)[C@H](O)[C@@H]1O)Oc1ccccc1 [Remdesivir, reference compound]
EC50: 1.76 µM
